The list does not hold the whole screen: it gathers tests that were run many times, whatever their T/C, doses with no T/C, and many T/C values between a quarter and a half above the control. Further doses and runs are listed elsewhere. T/C is the treated group as % of the vehicle group. Some entries give survivors of the animals treated and no T/C: the source holds a T/C of zero for them, seemingly a mark for toxic or unscored doses. Some doses without a T/C left all or most animals alive at the check, yet need not have been tolerated: the source hardly ever lists a survival T/C far under the control, and the zero likely stands for such cases as well. Survivors were counted at the toxicity check, usually on the fifth day, unless a day is given; later deaths do not show. Schedule codes are those of the source, read here as Q, the interval in days (D) or hours (H), X, the number of doses. Some entries were tested several times; their values stand side by side, smallest first. Some schedules carry Z or #; the key to these is not given. Where survival is the endpoint, the PubChem record calls one and a half times the control and up active, and a quarter to a half above the control has no call in these data; cut-offs in other NCI protocols can differ. Signs of the kind (2×) count equal records among those shown. Some T/C values are followed by the survivors on the day toxicity was checked, most often the fifth; where none is given, no animal had died by that day.
Test system: BDF1 mice, P288 leukemia ip, survival T/C
Assay: NCI In Vivo Anticancer Drug Screen. Data for tumor model P288 Lymphocytic Leukemia (intraperitoneal) in B6D2F1 (BDF1) mice
Details: T/C endpoint: survival time, mean or median, higher T/C = longer survival
Protocol: The antitumor activity of compounds was measured in mice bearing transplantable tumors. Survival or tumor size were measured and the results are expressed as the measurement made in the treated group (T) divided by the measurement made in the vehicle treated control group (C). The tumor model used in this assay is P288 Lymphocytic Leukemia (intraperitoneal) in B6D2F1 (BDF1) mice

[1] = dose: 50.0 mg/kg/injection, schedule: Q01DX010 (ip), vehicle: saline
[2] = dose: 500.0 mg/kg/injection, schedule: Q01DX Z (ip), vehicle: carboxymethylcellulose (CMC)
[3] = dose: 62.5 mg/kg/injection, schedule: Q01DX010 (ip), vehicle: saline
[4] = dose: 125.0 mg/kg/injection, schedule: Q01DX010 (ip), vehicle: saline
[5] = dose: 250.0 mg/kg/injection, schedule: Q01DX010 (ip), vehicle: saline
[6] = dose: 500.0 mg/kg/injection, schedule: Q01DX010 (ip), vehicle: saline

In the case of `O=P1(N(CCCl)CCCl)NCCCO1` (stereo not drawn), the survivor count (dose: 11.3 mg/kg/injection, schedule: Q01DX010 (ip), vehicle: saline) is reported as 6 of 6, the T/C (dose: 90.0 mg/kg/injection, schedule: Q01DX010 (ip), vehicle: saline) is reported as 132 % of control and the T/C (dose: 100.0 mg/kg/injection, schedule: Q01DX Z (ip), vehicle: saline) is reported as 132 % of control. The survivor count (dose: 180.0 mg/kg/injection, schedule: Q01DX010 (ip), vehicle: saline) was 6 of 6.
`CN(N=O)C(=O)NC(C=O)C(O)C(O)C(O)CO` (stereo not drawn) was tested, and the survivor count (dose: 200.0 mg/kg/injection, schedule: Q01DX Z (ip), vehicle: saline) was 2 of 6 and the survivor count (dose: 400.0 mg/kg/injection, schedule: Q01DX Z (ip), vehicle: saline) was 0 of 6.
In the case of `O=C(Nc1ccc(C2=NCCN2)cc1)c1ccc(C(=O)Nc2ccc(C3=NCCN3)cc2)c(Cl)c1`, the T/C (dose: 4.0 mg/kg/injection, schedule: Q01DX010 (ip), vehicle: other) is reported as 128 and 129 % of control, the survivor count (dose: 7.5 mg/kg/injection, schedule: Q01DX Z (ip), vehicle: water) is reported as 6 of 6 and the T/C (dose: 30.0 mg/kg/injection, schedule: Q01DX Z (ip), vehicle: water) is reported as 130 % of control [5 of 6 alive]. The survivor count (dose: 60.0 mg/kg/injection, schedule: Q01DX Z (ip), vehicle: water) was 0 of 6.
`COC12C(COC(N)=O)C3=C(C(=O)C(C)=C(N)C3=O)N1CC1C2N1C` (stereo not drawn) was tested, and the T/C (dose: 2.5 mg/kg/injection, schedule: Q01DX Z (ip), vehicle: carboxymethylcellulose (CMC)) was 128 and 134 % of control.
For `CSc1ncnc2nc[nH]c12`, the survivor count (dose: 25.0 mg/kg/injection, schedule: Q01DX010 (ip), vehicle: saline) was 6 of 6, the survivor count (dose: 25.0 mg/kg/injection, schedule: Q01DX Z (ip), vehicle: carboxymethylcellulose (CMC)) was 6 of 6 and the survivor count [1] was 6 of 6. For the same compound, the survivor count (dose: 100.0 mg/kg/injection, schedule: Q01DX010 (ip), vehicle: saline) was 6 of 6, the survivor count (dose: 100.0 mg/kg/injection, schedule: Q01DX Z (ip), vehicle: carboxymethylcellulose (CMC)) was 6 of 6 and the survivor count (dose: 200.0 mg/kg/injection, schedule: Q01DX010 (ip), vehicle: saline) was 6 of 6. For the same compound, the survivor count (dose: 200.0 mg/kg/injection, schedule: Q01DX Z (ip), vehicle: carboxymethylcellulose (CMC)) was 6 of 6.
For `NC(=O)N(CCCl)N=O`, the survivor count (dose: 4.0 mg/kg/injection, schedule: Q01DX010 (ip), vehicle: saline) was 6 of 6, the survivor count (dose: 16.0 mg/kg/injection, schedule: Q01DX Z (ip), vehicle: carboxymethylcellulose (CMC)) was 6 of 6 and the survivor count (dose: 32.0 mg/kg/injection, schedule: Q01DX Z (ip), vehicle: carboxymethylcellulose (CMC)) was 4 of 6. The survivor count (dose: 64.0 mg/kg/injection, schedule: Q01DX Z (ip), vehicle: carboxymethylcellulose (CMC)) was 0 of 6.
With `O=C(Nc1ccc(C2=NCCN2)cc1)c1ccc(C(=O)Nc2ccc(C3=NCCN3)cc2)c([N+](=O)[O-])c1` the T/C (dose: 18.0 mg/kg/injection, schedule: Q01DX010 (ip), vehicle: saline) was 144 % of control.
With `CN(C)c1nc(N(C)C)nc(N(C)C)n1` the survivor count (dose: 18.8 mg/kg/injection, schedule: Q01DX010 (ip), vehicle: saline) was 6 of 6, the survivor count (dose: 37.5 mg/kg/injection, schedule: Q01DX010 (ip), vehicle: saline) was 6 of 6 and the survivor count (dose: 62.5 mg/kg/injection, schedule: Q01DX Z (ip), vehicle: carboxymethylcellulose (CMC)) was 6 of 6. For the same compound, the survivor count (dose: 75.0 mg/kg/injection, schedule: Q01DX010 (ip), vehicle: saline) was 6 of 6, the survivor count (dose: 150.0 mg/kg/injection, schedule: Q01DX010 (ip), vehicle: saline) was 5 of 6 and 6 of 6 and the survivor count (dose: 250.0 mg/kg/injection, schedule: Q01DX Z (ip), vehicle: carboxymethylcellulose (CMC)) was 4 of 6. The survivor count [2] was 1 of 6.
For `O=c1cn[nH]c(=O)[nH]1`, the T/C [3] was 88 and 94 % of control, the survivor count [3] was 6 of 6 and the T/C [4] was 88 and 100 % of control (2×). The survivor count [4] was 6 of 6, the T/C [5] was 88, 94, 100 % of control and the survivor count [5] was 6 of 6. The T/C [6] was 90 and 100 % of control (3×) and the T/C [2] was 125 % of control.
For `C[C@]12C=CC(=O)C=C1CC[C@@H]1[C@@H]2C(=O)C[C@@]2(C)[C@H]1CC[C@]2(O)C(=O)CO`, the survivor count (dose: 12.5 mg/kg/injection, schedule: Q01DX010 (sc), vehicle: steroid suspending solution) was 6 of 6, the survivor count (dose: 25.0 mg/kg/injection, schedule: Q01DX010 (sc), vehicle: steroid suspending solution) was 6 of 6 and the survivor count (dose: 100.0 mg/kg/injection, schedule: Q01DX010 (sc), vehicle: steroid suspending solution) was 6 of 6. For the same compound, the survivor count (dose: 200.0 mg/kg/injection, schedule: Q01DX010 (sc), vehicle: steroid suspending solution) was 6 of 6 and the survivor count (dose: 400.0 mg/kg/injection, schedule: Q01DX Z (sc), vehicle: steroid suspending solution) was 5 of 6.
`O=NN(CCCl)C(=O)NCCCl` was tested, and the T/C (dose: 4.0 mg/kg/injection, schedule: Q01DX Z (ip), vehicle: saline) was 134 % of control, the T/C (dose: 8.0 mg/kg/injection, schedule: Q01DX Z (ip), vehicle: saline) was 140 % of control and the survivor count [1] was 5 of 6. For the same compound, the survivor count (dose: 128.0 mg/kg/injection, schedule: Q01DX Z (ip), vehicle: saline) was 6 of 6.
For `N#C[C@@H]1C2C=CC(CC2)[C@H]1C#N`, the survivor count (dose: 0.5 mg/kg/injection, schedule: Q01DX010 (ip), vehicle: saline) was 6 of 6, the survivor count (dose: 1.0 mg/kg/injection, schedule: Q01DX010 (ip), vehicle: saline) was 6 of 6 and the survivor count (dose: 2.0 mg/kg/injection, schedule: Q01DX010 (ip), vehicle: saline) was 6 of 6. For the same compound, the T/C (dose: 250.0 micrograms/kg/injection, schedule: Q01DX010 (ip), vehicle: saline) was 127 % of control.
In the case of `Cn1c(N)nc2nc[nH]c2c1=S`, the survivor count (dose: 1.6 mg/kg/injection, schedule: Q01DX Z (ip), vehicle: carboxymethylcellulose (CMC)) is reported as 6 of 6 and the survivor count (dose: 6.3 mg/kg/injection, schedule: Q01DX Z (ip), vehicle: carboxymethylcellulose (CMC)) is reported as 6 of 6.
With `OCC1OC(n2cnc3c(Cl)ncnc32)C(O)C1O` (stereo not drawn) the T/C [3] was 88 % of control (2×), the survivor count [3] was 6 of 6 and the T/C [4] was 88 % of control (2×). For the same compound, the survivor count [4] was 6 of 6, the T/C [5] was 88 and 94 % of control and the survivor count [5] was 6 of 6. For the same compound, the T/C [6] was 88 (2×) and 88 % of control [5 of 6 alive], the survivor count [6] was 6 of 6 and the survivor count [2] was 5 of 6. For the same compound, the survivor count (dose: 1000.0 mg/kg/injection, schedule: Q01DX Z (ip), vehicle: carboxymethylcellulose (CMC)) was 6 of 6.
